{"source": "PubChem BioAssay AID1159584 (Peter MacCallum Cancer Centre, 2016)", "test": "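Genes that CDH1-null MCF10A cells selectively depend on to survive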 (primary screen)", "cell system": "human MCF10A breast epithelial cells, parental and CDH1-null", "knock-down reagent": "siRNA against human genes", "read-out": "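ATP luminescence (CellTiter-Glo) viability per line relative to mean mock wells over all plates, and the ratio of CDH1-null to parental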", "scale": "CDH1-null / parental viability ratio: higher = CDH1-null cells survive relatively better than parental; CDH1-null viability vs mock: higher = more viable CDH1-null cells", "units": "CDH1-null viability vs mock in fraction of mock", "note": "Here is a random part of about 18,000 reagents. Further read-outs or replicates are left out here. The record does not give: the amount of reagent, the time to read-out."}
The first 4 entries as a preview:
{"Target gene": "CLASP1", "CDH1-null / parental viability ratio": 1.93, "CDH1-null viability vs mock": 0.89}
{"Target gene": "WNT9B", "CDH1-null / parental viability ratio": 0.49, "CDH1-null viability vs mock": 0.48}
{"Target gene": "PYROXD2", "CDH1-null / parental viability ratio": 0.94, "CDH1-null viability vs mock": 0.62}
{"Target gene": "DAAM1", "CDH1-null / parental viability ratio": 0.69, "CDH1-null viability vs mock": 0.55}

The list itself, from the start:
{"Target gene": "CLASP1", "CDH1-null / parental viability ratio": 1.93, "CDH1-null viability vs mock": 0.89}
{"Target gene": "WNT9B", "CDH1-null / parental viability ratio": 0.49, "CDH1-null viability vs mock": 0.48}
{"Target gene": "PYROXD2", "CDH1-null / parental viability ratio": 0.94, "CDH1-null viability vs mock": 0.62}
{"Target gene": "DAAM1", "CDH1-null / parental viability ratio": 0.69, "CDH1-null viability vs mock": 0.55}
{"Target gene": "MAMDC2", "CDH1-null / parental viability ratio": 1.14, "CDH1-null viability vs mock": 1.06}
{"Target gene": "SKA3", "CDH1-null / parental viability ratio": 1.14, "CDH1-null viability vs mock": 0.75}
{"Target gene": "DQX1", "CDH1-null / parental viability ratio": 1.37, "CDH1-null viability vs mock": 0.78}
{"Target gene": "EMC1", "CDH1-null / parental viability ratio": 1.03, "CDH1-null viability vs mock": 0.92}
{"Target gene": "QTRT2", "CDH1-null / parental viability ratio": 1.07, "CDH1-null viability vs mock": 0.77}
{"Target gene": "UQCC2", "CDH1-null / parental viability ratio": 0.98, "CDH1-null viability vs mock": 0.8}
{"Target gene": "TMEM190", "CDH1-null / parental viability ratio": 1.36, "CDH1-null viability vs mock": 0.6}
{"Target gene": "TMPRSS9", "CDH1-null / parental viability ratio": 1.38, "CDH1-null viability vs mock": 0.91}
{"Target gene": "TMEM222", "CDH1-null / parental viability ratio": 1, "CDH1-null viability vs mock": 0.78}
{"Target gene": "IRAK2", "CDH1-null / parental viability ratio": 0.9, "CDH1-null viability vs mock": 0.83}
{"Target gene": "CD80", "CDH1-null / parental viability ratio": 0.92, "CDH1-null viability vs mock": 0.7}
{"Target gene": "ARAF", "CDH1-null / parental viability ratio": 0.95, "CDH1-null viability vs mock": 0.94}
{"Target gene": "NLRP9", "CDH1-null / parental viability ratio": 0.94, "CDH1-null viability vs mock": 0.98}
{"Target gene": "RFX3", "CDH1-null / parental viability ratio": 0.82, "CDH1-null viability vs mock": 0.7}
{"Target gene": "PLAC8", "CDH1-null / parental viability ratio": 0.94, "CDH1-null viability vs mock": 0.77}
{"Target gene": "TINF2", "CDH1-null / parental viability ratio": 1.45, "CDH1-null viability vs mock": 0.42}
{"Target gene": "DSCR4", "CDH1-null / parental viability ratio": 1, "CDH1-null viability vs mock": 0.72}
{"Target gene": "PSMA4", "CDH1-null / parental viability ratio": 1.41, "CDH1-null viability vs mock": 0.52}
{"Target gene": "TRIM39", "CDH1-null / parental viability ratio": 0.96, "CDH1-null viability vs mock": 0.94}
{"Target gene": "PACSIN3", "CDH1-null / parental viability ratio": 0.98, "CDH1-null viability vs mock": 0.82}
{"Target gene": "FHIT", "CDH1-null / parental viability ratio": 0.86, "CDH1-null viability vs mock": 0.72}
{"Target gene": "MMRN1", "CDH1-null / parental viability ratio": 1.23, "CDH1-null viability vs mock": 0.96}
{"Target gene": "DAO", "CDH1-null / parental viability ratio": 1.11, "CDH1-null viability vs mock": 0.71}
{"Target gene": "HMGB1", "CDH1-null / parental viability ratio": 0.97, "CDH1-null viability vs mock": 0.58}
{"Target gene": "NDOR1", "CDH1-null / parental viability ratio": 1.04, "CDH1-null viability vs mock": 0.81}
{"Target gene": "QARS1", "CDH1-null / parental viability ratio": 0.81, "CDH1-null viability vs mock": 0.47}
{"Target gene": "PRDX1", "CDH1-null / parental viability ratio": 1.28, "CDH1-null viability vs mock": 1.2}
{"Target gene": "DZIP3", "CDH1-null / parental viability ratio": 0.8, "CDH1-null viability vs mock": 0.52}
{"Target gene": "ZNF454", "CDH1-null / parental viability ratio": 1.25, "CDH1-null viability vs mock": 0.55}
{"Target gene": "SLC37A3", "CDH1-null / parental viability ratio": 0.99, "CDH1-null viability vs mock": 0.93}
{"Target gene": "NCKAP1", "CDH1-null / parental viability ratio": 0.84, "CDH1-null viability vs mock": 0.62}
